Test [1] has as its target recombinant protein corresponding to udTRF2 (the long linker region of TRF2) (UniProt Q15554). Briefly: co-IP; nuclear lamina extract of mouse liver nuclei incubated with 5 uL recombinant udTRF2 (0.25 mg/mL) for 7 h, then added to protein A Sepharose with anti-udTRF2 antibodies; IP buffer 20 mM Tris pH 7.5, 150 mM NaCl, 1 mM EDTA, 1 mM PMSF; 4 °C; Western blot with anti-lamin C and anti-lamin B1; only the target purified.

Protein sequences, listed by entry. Tags and fused reporters are not part of them. Lines headed by an entry give the natural chain unless they say otherwise; changes in a name come on top. Chains listed by the source or under a name are the forms on record and can include a tag or linker.
UniProt Q15554: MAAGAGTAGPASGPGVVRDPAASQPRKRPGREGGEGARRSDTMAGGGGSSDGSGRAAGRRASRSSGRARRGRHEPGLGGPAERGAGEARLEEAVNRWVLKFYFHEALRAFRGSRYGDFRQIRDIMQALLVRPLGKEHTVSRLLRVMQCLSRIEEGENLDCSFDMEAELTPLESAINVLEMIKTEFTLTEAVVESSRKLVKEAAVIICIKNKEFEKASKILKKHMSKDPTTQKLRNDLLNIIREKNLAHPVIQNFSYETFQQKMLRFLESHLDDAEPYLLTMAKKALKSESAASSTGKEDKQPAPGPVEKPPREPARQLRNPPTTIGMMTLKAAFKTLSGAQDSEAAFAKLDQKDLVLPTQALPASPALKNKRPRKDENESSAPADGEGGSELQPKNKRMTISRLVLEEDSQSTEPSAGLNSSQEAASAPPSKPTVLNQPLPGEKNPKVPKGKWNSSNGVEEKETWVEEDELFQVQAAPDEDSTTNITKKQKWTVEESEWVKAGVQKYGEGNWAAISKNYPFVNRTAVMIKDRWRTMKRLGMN
lamin C (P48678-2, form named): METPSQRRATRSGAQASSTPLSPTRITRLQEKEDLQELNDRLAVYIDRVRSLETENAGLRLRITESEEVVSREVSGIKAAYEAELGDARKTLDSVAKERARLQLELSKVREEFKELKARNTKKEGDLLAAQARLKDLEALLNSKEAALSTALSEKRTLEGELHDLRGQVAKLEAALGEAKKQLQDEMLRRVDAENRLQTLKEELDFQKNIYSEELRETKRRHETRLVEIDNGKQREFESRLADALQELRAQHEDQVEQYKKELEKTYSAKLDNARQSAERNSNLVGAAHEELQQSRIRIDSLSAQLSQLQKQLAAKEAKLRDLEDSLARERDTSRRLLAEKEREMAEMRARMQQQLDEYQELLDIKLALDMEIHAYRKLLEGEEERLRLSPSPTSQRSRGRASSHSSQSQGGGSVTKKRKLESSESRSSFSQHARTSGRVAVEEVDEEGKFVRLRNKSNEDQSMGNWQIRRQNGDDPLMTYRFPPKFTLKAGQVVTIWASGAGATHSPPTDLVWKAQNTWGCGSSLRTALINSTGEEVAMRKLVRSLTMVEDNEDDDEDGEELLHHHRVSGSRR

For test [2] the target is unchanged. The experiment in a line: co-IP; anti-udTRF2 antibodies on protein A Sepharose incubated with an excess of recombinant udTRF2 for 3 h, then mouse liver nuclear extract added; Western blot with anti-lamin A and anti-lamin C; only the target purified. (In general: In western blotting, separated proteins are transferred to a membrane and probed.)

Results are given in words; binding and its absence hold for the method and conditions named. In cells and extracts the contact can be indirect. Binding calls can cover weak binding; strength is not graded here.

Consider lamin C (from UniProt P48678-2 1-574), for which the binding result in test [1] and in test [2] was “binds” throughout.

Source of the values: PMC8036907.
